Some of the results follow. Shown are side measurements of this screen, not its main read-out; they come without a call. Most of these compounds were active or inconclusive in the main read-out, so they are no random draw. Words in brackets tell the shape of the fitted curve; partial curves, single points and poor fits give uncertain potencies.
Experiment: qHTS Assay to Find Inhibitors of Chronic Active B-Cell Receptor Signaling
Settings: ABC-DLBCL IkBa-CBG/CBR reporter, luminescence ratio (green luciferase fused to IkBa over red control in TMD8 lymphoma cells), 4 h
Outline: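 TMD8 human ABC-DLBCL cells with doxycycline-inducible IκBα–green luciferase fusion and unfused red luciferase, in 0.5% FBS medium; compounds up to 46 uM, 4 h at 37C. Green/red luminescence ratio, filter-overlap corrected, fitted to concentration-response curves.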

[1] = measured here: CBR red luminescence, cell number
[2] = measured here: IkBa-CBG green luminescence

SMILES | AC50 [1] | AC50 [2]
c1cncc(-c2noc(CC3CCCCC3)n2)c1 | 6.51 µM [falling, single point] | 4.11 µM [rising, partial curve, poor fit]
Cn1c(SCC(=O)N2c3ccccc3CCc3ccccc32)nnc1-c1ccc(O)cc1 | 29.1 µM [falling, single point] | 
CCCS(=O)(=O)Nc1c(C(=O)O)[nH]c2ccc(OC)cc12 | 11.2 µM [falling, partial curve, poor fit] | 
COc1ccc(/C=N/Nc2nccnc2Cl)c(OC)c1 | 10 µM [falling, partial curve] | 12.6 µM [falling, partial curve, poor fit]
O=C(Cn1cnc2cc([N+](=O)[O-])ccc2c1=O)Nc1ccc2c(c1)OCO2 | 20 µM [falling, single point] | 
COc1ccc2cc(C(=O)NCc3ccco3)c(=Nc3ccc(C(=O)O)cc3)oc2c1 | 0.366 µM [falling, full curve, poor fit] | 
Cc1[nH]c2ccccc2c1N=Nc1ccccc1C(=O)O | 2.31 µM [falling, full curve] | 
CCOC(=O)c1c(Nc2ccccc2)sc(/C=C2\C=Nc3ccccc32)c1O | 1.3 µM [rising, full curve, poor fit] | 
Brc1ccc(OCCCN2CCOCC2)cc1 | 1.16 µM [rising, full curve, poor fit] | 
Fc1cccc(Cl)c1Cn1nnc2c(NCc3ccccn3)ncnc21 | 11.6 µM [falling, partial curve, poor fit] | 
CCCc1cc(=O)[nH]c(SCC(=O)Nc2nc(-c3ccccc3)cs2)n1 | 12.6 µM [falling, partial curve, poor fit] | 
CCOc1ccccc1N(CC(=O)NC1CCCCC1)C(=O)CCC(=O)Nc1cc(C)ccn1 | 17.8 µM [falling, single point] | 
Cc1ccc(/C=C/C2=NN(Cc3ccccc3Cl)C(=O)CC2)cc1 | 11.6 µM [rising, partial curve, poor fit] | 
CC1C/C(=N/NC(=O)c2ccc(CSc3nc4ccccc4[nH]3)cc2)CC(C)(C)C1 (stereo not drawn) | 29.1 µM [falling, single point] | 
O=S(=O)(NCCc1cn2ccccc2n1)c1ccc(-c2ccccc2)cc1 | 17.8 µM [falling, single point] | 
CCC(C)NC(=O)c1cc2c(=O)[nH]c3ccc(C)cc3c2s1 (stereo not drawn) | 4.47 µM [rising, full curve, poor fit] | 
CCCNC(=O)COC(=O)c1cc(-c2ccc(OC)cc2)nc2ccccc12 | 4.47 µM [rising, full curve, poor fit] | 
CN(C)c1ccc(C#Cc2ccc3cc(CCCO)oc(=O)c3c2)cc1 | 0.82 µM [rising, full curve] | 
CC(C)c1ccc(/C=C(\c2nc3ccccc3[nH]2)S(=O)(=O)c2ccccc2)cc1 | 29.1 µM [falling, single point] | 4.11 µM [falling, partial curve, poor fit]
Cc1cccc(NC(=S)Nc2cccc(C(F)(F)F)c2)n1 | 7.31 µM [rising, partial curve] | 
Cc1ccc(S(=O)(=O)NCC(=O)OCCOc2ccccc2F)cc1 | 25.9 µM [falling, partial curve, poor fit] | 
O=C(CCNC(=O)Cn1ccc2ccccc2c1=O)NCCN1CCN(c2cccc(Cl)c2)CC1 | 0.92 µM [falling, partial curve, poor fit] | 
Cc1nnc(SCC(=O)Nc2cc(-c3cc(C)c(C)cc3C)nn2-c2ccccc2)s1 | 2.59 µM [rising, partial curve, poor fit] | 
O=C(Nc1cc(Oc2ccc(Cl)cc2)cc([N+](=O)[O-])c1)c1ccco1 | 2.59 µM [rising, full curve, poor fit] | 
CCOC(=O)C1CCN(C(=O)c2cc3c(=O)n4ccccc4nc3s2)CC1 | 8.91 µM [falling, partial curve, poor fit] | 
COc1ccc(C(=O)N/N=C/C(Br)=C/c2ccccc2)cc1 | 1.64 µM [rising, partial curve] | 
CC(=O)Oc1ccc(C(=O)Nc2cccc(C(=O)Nc3ccccc3C(=O)O)c2)cc1 | 7.94 µM [falling, partial curve] | 

SMILES | AC50 [1] | AC50 [2]
O=C(O)C1CCN(C(=O)OCc2ccccc2)CC1 | 9.2 µM [rising, partial curve, poor fit] | 
COc1ccc(-c2nn(C)c3sc(C(=O)Nc4cccc(F)c4)cc23)cc1OC | 1.12 µM [falling, full curve, poor fit] | 
C[C@H](CO)N1C[C@H](C)[C@@H](CN(C)S(=O)(=O)c2cccs2)Oc2ccc(NC(=O)C3CC3)cc2C1=O | 11.6 µM [rising, partial curve, poor fit] | 
COc1ccc(C2N(c3ccc(C)cc3)CCN2c2ccc(C)cc2)cc1O | 1 µM [rising, full curve, poor fit] | 
COc1cc(/C=C/c2cc(C(F)(F)F)[nH]c(=O)n2)cc(OC)c1OC | 35.5 µM [falling, single point] | 22.4 µM [falling, single point]
COc1cc(C2NC(=S)NC(C)=C2C(=O)Nc2ccc(C)cc2)ccc1O (stereo not drawn) | 0.355 µM [rising, partial curve, poor fit] | 
CCCCCn1c(CN2CCN(c3cccc(Cl)c3)CC2)nc2c1c(=O)[nH]c(=O)n2C | 35.5 µM [falling, single point] | 
CC1=NNC(=O)C1C(c1ccccc1)C(C#N)C#N (stereo not drawn) | 18.4 µM [falling, partial curve, poor fit] | 
CCN(CC(=O)Nc1ccc(NC(C)=O)cc1)CC(=O)Nc1ccc(Cl)c(Cl)c1 | 20 µM [rising, single point] | 
CCOC(=O)N/N=C1\CC(C)S(=O)(=O)c2ccc(Cl)cc21 (stereo not drawn) | 10 µM [rising, partial curve, poor fit] | 
CCOc1ccc(N2C(=O)CN(c3cccc4ccccc34)C2=S)cc1 | 1.12 µM [falling, full curve] | 
CC(C)CNC(=O)CSc1ccc(Cl)cc1 | 6.51 µM [rising, single point] | 
COc1ccccc1C(=O)Nc1ccc(-c2nnn(CC(=O)N3CCOCC3)n2)cc1 | 2 µM [falling, full curve] | 
Nc1nonc1-n1nnc(C(=O)N/N=C/c2ccccc2Cl)c1CN1CCOCC1 | 17.8 µM [rising, single point] | 
Cc1c(Cl)cnc(NC(=O)CSc2n[nH]c(N)n2)c1Cl | 0.651 µM [rising, partial curve, poor fit] | 
O=C(Cc1cccs1)Nc1nnc(-c2ccncc2)s1 | 8.2 µM [falling, partial curve] | 
COc1ccc(NC(=O)/C(C#N)=C/c2ccc(-c3ccccc3C(=O)O)o2)cc1 | 8.91 µM [falling, partial curve] | 
Cc1ccc(OCc2ccc(C(=O)NCc3cccnc3)cc2)cc1C | 14.1 µM [falling, partial curve, poor fit] | 
CCOc1ccc(CNC(=O)c2cc3oc4ccccc4c3n2C)cc1 | 2.59 µM [falling, partial curve] | 
CC(=O)Nc1ccc(NC(=O)c2ccc(NS(=O)(=O)c3cccc4cccnc34)cc2)cc1 | 3.55 µM [falling, single point] | 
CC(=O)c1ccc(NC(=O)C(C)N(C)CC(=O)Nc2ccc(N3CCOCC3)cc2)cc1 (stereo not drawn) | 7.08 µM [rising, partial curve, poor fit] | 
C=CCn1c(CNC(=O)c2cccs2)nnc1SCC(=O)Nc1ccc(C(=O)O)cc1 | 2.06 µM [falling, partial curve, poor fit] | 
COc1cc(NC(=O)c2c(F)cccc2F)c(Cl)cc1Cl | 11.2 µM [rising, partial curve, poor fit] | 
O=C(N/N=C/c1ccccn1)c1ccc(Cl)cc1 | 0.0891 µM [rising, full curve, poor fit] | 35.5 µM [falling, single point]
ClCC1CSC(=NC23CC4CC(CC(C4)C2)C3)O1 (stereo not drawn) | 5.01 µM [rising, full curve, poor fit] | 
CCN(CCNC(=O)CN1CCN(Cc2ccc(Cl)cc2)C1=O)c1ccccc1 | 2.59 µM [falling, partial curve, poor fit] | 

In the list so far, these have a thiophene ring, fused or not:
SMILES | AC50 [1] | AC50 [2]
CCOC(=O)c1c(Nc2ccccc2)sc(/C=C2\C=Nc3ccccc32)c1O | 1.3 µM [rising, full curve, poor fit] | 
CCC(C)NC(=O)c1cc2c(=O)[nH]c3ccc(C)cc3c2s1 (stereo not drawn) | 4.47 µM [rising, full curve, poor fit] | 
CCOC(=O)C1CCN(C(=O)c2cc3c(=O)n4ccccc4nc3s2)CC1 | 8.91 µM [falling, partial curve, poor fit] | 
COc1ccc(-c2nn(C)c3sc(C(=O)Nc4cccc(F)c4)cc23)cc1OC | 1.12 µM [falling, full curve, poor fit] | 
C[C@H](CO)N1C[C@H](C)[C@@H](CN(C)S(=O)(=O)c2cccs2)Oc2ccc(NC(=O)C3CC3)cc2C1=O | 11.6 µM [rising, partial curve, poor fit] | 
O=C(Cc1cccs1)Nc1nnc(-c2ccncc2)s1 | 8.2 µM [falling, partial curve] | 
C=CCn1c(CNC(=O)c2cccs2)nnc1SCC(=O)Nc1ccc(C(=O)O)cc1 | 2.06 µM [falling, partial curve, poor fit] | 

Some of the entries above in a different format.
SMILES,AC50 [1],AC50 [2]
CCOC(=O)N/N=C1\CC(C)S(=O)(=O)c2ccc(Cl)cc21 (stereo not drawn),"10 µM [rising, partial curve, poor fit]",
C=CCn1c(CNC(=O)c2cccs2)nnc1SCC(=O)Nc1ccc(C(=O)O)cc1,"2.06 µM [falling, partial curve, poor fit]",

Source: PubChem BioAssay AID493014 (National Center for Advancing Translational Sciences (NCATS), 2011)
